According to the supplement of paper PMC10849652:
This is one part of the list.

Chains of the proteins cited; added tags and fusions are not shown. Lines headed by an entry give the natural chain unless they say otherwise; changes in a name come on top.
UniProt Q8NEJ9: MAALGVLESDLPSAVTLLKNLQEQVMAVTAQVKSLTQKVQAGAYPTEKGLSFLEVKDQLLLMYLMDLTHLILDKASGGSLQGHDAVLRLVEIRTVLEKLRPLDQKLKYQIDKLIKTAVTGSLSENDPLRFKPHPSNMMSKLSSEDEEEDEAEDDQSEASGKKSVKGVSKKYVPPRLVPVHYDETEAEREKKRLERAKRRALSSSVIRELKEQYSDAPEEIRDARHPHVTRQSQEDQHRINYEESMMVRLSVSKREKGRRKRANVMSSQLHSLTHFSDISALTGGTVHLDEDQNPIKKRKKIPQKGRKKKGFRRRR
UniProt Q9NYR9: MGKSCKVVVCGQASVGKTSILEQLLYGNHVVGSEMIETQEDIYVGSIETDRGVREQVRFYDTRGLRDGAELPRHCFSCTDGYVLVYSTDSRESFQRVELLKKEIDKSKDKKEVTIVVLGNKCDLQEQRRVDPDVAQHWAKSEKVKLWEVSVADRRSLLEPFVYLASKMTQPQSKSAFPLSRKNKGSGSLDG
UniProt Q9GZP1: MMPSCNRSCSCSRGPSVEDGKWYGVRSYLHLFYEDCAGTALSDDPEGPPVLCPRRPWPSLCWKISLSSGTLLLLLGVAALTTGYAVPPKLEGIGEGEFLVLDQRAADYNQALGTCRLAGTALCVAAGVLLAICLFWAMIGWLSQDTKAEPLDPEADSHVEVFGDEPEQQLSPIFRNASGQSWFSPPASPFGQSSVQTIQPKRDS
UniProt Q9UHC9: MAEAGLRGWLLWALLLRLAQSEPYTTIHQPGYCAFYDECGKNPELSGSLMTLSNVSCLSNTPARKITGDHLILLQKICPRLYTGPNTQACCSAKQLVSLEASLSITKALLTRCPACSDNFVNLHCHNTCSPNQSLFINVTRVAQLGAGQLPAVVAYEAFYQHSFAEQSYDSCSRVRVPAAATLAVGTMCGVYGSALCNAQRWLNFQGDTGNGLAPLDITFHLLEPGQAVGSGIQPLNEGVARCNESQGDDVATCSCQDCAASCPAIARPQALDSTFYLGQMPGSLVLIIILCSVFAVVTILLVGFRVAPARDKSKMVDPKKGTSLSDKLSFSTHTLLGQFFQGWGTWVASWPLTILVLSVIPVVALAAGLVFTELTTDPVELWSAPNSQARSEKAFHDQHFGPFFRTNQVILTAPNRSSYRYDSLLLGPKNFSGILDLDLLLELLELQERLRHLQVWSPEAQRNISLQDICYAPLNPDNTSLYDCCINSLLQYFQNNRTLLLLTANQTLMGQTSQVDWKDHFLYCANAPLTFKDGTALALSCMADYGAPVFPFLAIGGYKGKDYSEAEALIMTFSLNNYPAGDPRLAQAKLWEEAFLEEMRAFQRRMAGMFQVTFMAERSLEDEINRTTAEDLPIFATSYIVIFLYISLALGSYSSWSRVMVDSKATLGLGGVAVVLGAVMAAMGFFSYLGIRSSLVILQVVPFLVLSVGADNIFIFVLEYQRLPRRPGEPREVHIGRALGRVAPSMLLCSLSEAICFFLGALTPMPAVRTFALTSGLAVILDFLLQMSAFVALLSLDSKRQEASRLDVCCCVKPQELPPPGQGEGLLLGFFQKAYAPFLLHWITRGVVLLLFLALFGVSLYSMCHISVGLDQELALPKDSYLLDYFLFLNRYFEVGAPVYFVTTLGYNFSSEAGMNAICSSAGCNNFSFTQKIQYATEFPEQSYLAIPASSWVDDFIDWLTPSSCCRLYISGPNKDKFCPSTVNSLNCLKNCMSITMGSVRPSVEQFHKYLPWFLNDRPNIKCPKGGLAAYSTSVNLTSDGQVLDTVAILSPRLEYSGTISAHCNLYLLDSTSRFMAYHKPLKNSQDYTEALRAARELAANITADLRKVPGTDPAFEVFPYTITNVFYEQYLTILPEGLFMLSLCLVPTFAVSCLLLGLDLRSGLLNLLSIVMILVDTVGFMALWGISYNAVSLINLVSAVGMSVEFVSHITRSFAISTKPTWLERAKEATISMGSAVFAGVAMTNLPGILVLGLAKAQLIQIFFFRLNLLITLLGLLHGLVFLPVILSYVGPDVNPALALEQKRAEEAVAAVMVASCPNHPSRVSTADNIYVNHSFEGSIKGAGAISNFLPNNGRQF
UniProt O60361, whole entry, looked up: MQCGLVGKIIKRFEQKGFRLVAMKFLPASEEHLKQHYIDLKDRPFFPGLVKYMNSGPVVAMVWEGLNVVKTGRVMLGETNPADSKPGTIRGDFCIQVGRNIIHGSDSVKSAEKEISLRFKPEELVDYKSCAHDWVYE
UniProt P25963: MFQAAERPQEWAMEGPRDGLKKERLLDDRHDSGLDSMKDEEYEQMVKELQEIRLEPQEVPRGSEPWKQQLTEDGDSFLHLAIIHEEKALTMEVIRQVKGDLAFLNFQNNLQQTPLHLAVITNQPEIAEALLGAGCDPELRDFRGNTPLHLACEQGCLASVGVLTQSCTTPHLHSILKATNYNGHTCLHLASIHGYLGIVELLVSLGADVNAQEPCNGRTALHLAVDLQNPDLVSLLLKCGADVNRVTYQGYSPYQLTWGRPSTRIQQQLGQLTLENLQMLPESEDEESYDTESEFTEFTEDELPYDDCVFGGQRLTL
UniProt Q86UT6, whole entry, looked up: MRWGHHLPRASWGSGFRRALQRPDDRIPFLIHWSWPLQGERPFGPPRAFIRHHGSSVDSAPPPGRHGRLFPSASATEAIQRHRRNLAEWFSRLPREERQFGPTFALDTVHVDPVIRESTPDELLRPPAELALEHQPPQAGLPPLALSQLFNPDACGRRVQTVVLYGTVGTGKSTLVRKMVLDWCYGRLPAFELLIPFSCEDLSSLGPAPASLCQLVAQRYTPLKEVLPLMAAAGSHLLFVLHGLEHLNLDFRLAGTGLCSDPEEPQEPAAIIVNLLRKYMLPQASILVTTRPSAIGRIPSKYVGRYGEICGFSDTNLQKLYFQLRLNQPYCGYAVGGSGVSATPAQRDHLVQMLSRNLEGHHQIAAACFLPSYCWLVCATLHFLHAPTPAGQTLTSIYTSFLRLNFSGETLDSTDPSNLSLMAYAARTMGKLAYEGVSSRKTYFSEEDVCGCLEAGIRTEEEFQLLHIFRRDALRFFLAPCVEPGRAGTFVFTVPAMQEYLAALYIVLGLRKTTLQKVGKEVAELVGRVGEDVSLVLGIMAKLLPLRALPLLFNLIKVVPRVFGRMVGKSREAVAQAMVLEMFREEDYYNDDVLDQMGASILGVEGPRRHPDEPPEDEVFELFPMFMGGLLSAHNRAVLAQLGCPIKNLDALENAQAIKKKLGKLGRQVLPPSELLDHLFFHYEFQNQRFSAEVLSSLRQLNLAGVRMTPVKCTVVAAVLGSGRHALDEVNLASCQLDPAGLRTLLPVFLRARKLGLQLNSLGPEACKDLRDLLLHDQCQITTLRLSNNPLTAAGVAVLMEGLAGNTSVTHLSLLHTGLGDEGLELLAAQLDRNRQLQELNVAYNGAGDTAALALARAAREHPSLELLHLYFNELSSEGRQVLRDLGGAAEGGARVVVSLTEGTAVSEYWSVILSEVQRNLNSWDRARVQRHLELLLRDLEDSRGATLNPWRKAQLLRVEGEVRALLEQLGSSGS
UniProt Q8IXM6: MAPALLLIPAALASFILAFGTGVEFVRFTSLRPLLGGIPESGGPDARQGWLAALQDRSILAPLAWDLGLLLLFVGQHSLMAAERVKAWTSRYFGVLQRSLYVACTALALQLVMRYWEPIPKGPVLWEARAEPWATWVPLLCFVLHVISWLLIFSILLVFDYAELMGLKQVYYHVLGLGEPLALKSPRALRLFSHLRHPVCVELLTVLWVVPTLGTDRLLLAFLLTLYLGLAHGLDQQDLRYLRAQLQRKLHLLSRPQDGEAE
UniProt Q9NPE3: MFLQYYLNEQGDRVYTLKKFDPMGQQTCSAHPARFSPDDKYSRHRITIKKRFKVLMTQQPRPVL
UniProt P04150: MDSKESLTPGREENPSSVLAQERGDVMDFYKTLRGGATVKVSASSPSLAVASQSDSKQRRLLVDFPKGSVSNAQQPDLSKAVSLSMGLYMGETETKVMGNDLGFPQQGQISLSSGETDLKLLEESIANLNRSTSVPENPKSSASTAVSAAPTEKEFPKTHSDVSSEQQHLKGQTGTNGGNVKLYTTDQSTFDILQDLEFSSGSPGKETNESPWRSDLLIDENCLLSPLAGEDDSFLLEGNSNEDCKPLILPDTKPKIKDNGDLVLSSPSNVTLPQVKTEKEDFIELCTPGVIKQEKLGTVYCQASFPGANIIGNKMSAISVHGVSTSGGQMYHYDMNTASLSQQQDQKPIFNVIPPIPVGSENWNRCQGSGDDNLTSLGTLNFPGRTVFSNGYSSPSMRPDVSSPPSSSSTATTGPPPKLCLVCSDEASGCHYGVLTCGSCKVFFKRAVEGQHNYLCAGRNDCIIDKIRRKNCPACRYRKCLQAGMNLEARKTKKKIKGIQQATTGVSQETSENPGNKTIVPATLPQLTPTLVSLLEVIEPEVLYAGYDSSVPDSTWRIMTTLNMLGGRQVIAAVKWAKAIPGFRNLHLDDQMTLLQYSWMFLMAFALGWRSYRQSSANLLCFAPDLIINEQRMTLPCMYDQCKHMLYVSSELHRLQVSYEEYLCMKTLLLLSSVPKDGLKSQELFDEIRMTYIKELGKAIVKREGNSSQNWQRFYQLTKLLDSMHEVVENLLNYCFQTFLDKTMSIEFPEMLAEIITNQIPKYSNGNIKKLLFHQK
UniProt Q14494: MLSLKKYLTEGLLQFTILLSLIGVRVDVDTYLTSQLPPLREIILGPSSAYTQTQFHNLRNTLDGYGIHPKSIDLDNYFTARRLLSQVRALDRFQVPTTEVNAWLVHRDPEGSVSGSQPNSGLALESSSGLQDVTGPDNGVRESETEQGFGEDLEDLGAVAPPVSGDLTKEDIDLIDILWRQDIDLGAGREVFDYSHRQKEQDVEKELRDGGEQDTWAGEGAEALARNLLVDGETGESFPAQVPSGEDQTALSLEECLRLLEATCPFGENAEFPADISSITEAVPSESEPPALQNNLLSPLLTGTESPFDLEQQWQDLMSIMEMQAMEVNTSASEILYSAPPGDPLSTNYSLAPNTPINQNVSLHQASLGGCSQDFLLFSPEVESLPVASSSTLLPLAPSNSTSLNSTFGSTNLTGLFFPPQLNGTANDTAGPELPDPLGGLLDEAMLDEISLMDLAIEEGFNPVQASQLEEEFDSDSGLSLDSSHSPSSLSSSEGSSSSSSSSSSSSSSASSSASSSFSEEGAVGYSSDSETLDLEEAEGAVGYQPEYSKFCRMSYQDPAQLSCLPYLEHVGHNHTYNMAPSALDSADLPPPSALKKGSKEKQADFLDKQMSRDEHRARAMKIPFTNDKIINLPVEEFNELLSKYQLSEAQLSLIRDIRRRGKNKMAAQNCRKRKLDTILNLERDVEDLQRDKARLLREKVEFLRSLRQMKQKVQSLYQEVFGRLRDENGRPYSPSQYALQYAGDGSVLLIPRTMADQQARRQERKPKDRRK
UniProt P48645: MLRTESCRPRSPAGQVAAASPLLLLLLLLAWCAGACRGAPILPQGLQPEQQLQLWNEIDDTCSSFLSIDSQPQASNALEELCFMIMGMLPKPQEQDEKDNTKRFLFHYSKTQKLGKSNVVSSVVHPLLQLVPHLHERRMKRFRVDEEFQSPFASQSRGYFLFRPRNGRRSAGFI
UniProt Q8N5F7: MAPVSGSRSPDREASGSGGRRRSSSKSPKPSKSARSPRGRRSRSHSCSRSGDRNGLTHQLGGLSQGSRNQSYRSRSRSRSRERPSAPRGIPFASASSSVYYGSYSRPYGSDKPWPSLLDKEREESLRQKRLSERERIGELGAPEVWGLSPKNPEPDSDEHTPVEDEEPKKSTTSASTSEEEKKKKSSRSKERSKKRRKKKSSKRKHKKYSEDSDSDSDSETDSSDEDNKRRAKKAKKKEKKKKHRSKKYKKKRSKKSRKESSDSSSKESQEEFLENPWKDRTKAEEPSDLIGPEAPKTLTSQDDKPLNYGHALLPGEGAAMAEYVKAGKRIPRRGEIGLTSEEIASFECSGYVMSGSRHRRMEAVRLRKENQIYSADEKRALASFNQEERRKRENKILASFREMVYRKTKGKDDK
UniProt O75052: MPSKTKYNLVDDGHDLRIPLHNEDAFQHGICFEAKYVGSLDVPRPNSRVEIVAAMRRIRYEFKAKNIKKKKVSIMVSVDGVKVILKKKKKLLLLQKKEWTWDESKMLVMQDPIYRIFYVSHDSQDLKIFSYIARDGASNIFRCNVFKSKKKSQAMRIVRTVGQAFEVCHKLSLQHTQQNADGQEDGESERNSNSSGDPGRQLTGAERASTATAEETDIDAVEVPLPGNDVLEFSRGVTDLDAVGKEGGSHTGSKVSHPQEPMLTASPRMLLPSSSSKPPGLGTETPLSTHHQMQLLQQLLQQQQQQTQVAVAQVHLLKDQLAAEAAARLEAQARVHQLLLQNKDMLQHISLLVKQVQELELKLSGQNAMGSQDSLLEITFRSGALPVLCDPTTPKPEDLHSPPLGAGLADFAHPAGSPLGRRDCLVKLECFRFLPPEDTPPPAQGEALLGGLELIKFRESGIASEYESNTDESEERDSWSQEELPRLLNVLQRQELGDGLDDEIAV
UniProt Q92686, whole entry, looked up: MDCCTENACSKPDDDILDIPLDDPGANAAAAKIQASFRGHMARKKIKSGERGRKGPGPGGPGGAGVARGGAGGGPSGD

These targets were tested with CN1CCN(c2nc(C3=C(c4c[nH]c5ccccc45)C(=O)NC3=O)c3ccccc3n2)CC1 [sotrastaurin] (assay: log2 fold change, soluble protein after heating vs DMSO (PISA); higher = thermal stabilisation; K562 cells, 10 uM, 30 min; active = over 0.2 and 3.5 SD of the protein, either way, in both replicates (recomputed)).
Outline: (§1)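 K562 cells at 2×10^6 cells/mL were treated with 10 μM compound for 30 min. Aliquots were heated for 3 min across 48°C-58°C, pooled, and extracted in PBS with 0.5% NP-40 at 4°C; soluble protein was the supernatant after 21,000xg for 90 min. Soluble protein was quantified by TMTpro 16plex LC-MS/MS with channel sums equalised, and reported as log2 fold change in thermal stability against DMSO controls, with values from duplicates.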
In the case of NGDN (UniProt Q8NEJ9), the log2 fold change is reported as inactive: 0.142.
For NKIRAS2 (UniProt Q9NYR9), the log2 fold change was inactive: 0.013.
For NMNAT3 (UniProt Q96T66), the log2 fold change was inactive: 0.212.
NIPSNAP2 (UniProt C9J7B1) was tested, and the log2 fold change was inactive: -0.073.
For NRSN2 (UniProt Q9GZP1), the log2 fold change was inactive: -0.098.
With NSD1 (UniProt Q96L73) the log2 fold change was inactive: -0.054.
In the case of NPC1L1 (UniProt Q9UHC9), the log2 fold change is reported as inactive: 0.033.
NRIP3 (UniProt Q9NQ35) was tested, and the log2 fold change was inactive: 0.25.
In the case of NOMO3 (UniProt P69849), the log2 fold change is reported as inactive: 0.025.
With NME2P1 (UniProt O60361) the log2 fold change was inactive: 0.057.
NFKBIA (UniProt P25963) was tested, and the log2 fold change was inactive: -0.34.
With NLRX1 (UniProt Q86UT6) the log2 fold change was inactive: -0.196.
With NR2C1 (UniProt P13056) the log2 fold change was inactive: -0.068.
In the case of NFATC1 (UniProt O95644), the log2 fold change is reported as inactive: -0.204.
With NOSTRIN isoform 4 (UniProt Q8IVI9) the log2 fold change was inactive: -0.291.
In the case of NEU3 isoform 2 (UniProt Q9UQ49), the log2 fold change is reported as inactive: 0.004.
In the case of NRM (UniProt Q8IXM6), the log2 fold change is reported as inactive: 0.091.

What follows are targets tested with CN1CC[C@H](c2c(O)cc(O)c3c(=O)cc(-c4ccccc4Cl)oc23)[C@H](O)C1 [alvocidib] in the same assay as above.
Outline: as §1
For NGDN (UniProt Q8NEJ9), the log2 fold change was inactive: 0.052.
NFKB2 (UniProt Q00653) was tested, and the log2 fold change was inactive: -0.023.
NOP10 (UniProt Q9NPE3) was tested, and the log2 fold change was inactive: 0.083.
With NR3C1 isoform 3 (UniProt P04150) the log2 fold change was inactive: -0.059.
With NFE2L1 (UniProt Q14494) the log2 fold change was inactive: 0.017.
With NRM (UniProt Q8IXM6) the log2 fold change was inactive: -0.011.

These targets were tested with CN1CCc2c(c3ccccc3n2Cc2ccc(C(=O)NO)cc2)C1 [Tubastatin A] in the same assay as above.
Outline: as §1
For NGDN (UniProt Q8NEJ9), the log2 fold change was inactive: 0.033.
For NMU (UniProt P48645), the log2 fold change was inactive: 0.149.
For NKIRAS2 (UniProt Q9NYR9), the log2 fold change was inactive: 0.11.
NFKB2 (UniProt Q00653) was tested, and the log2 fold change was inactive: -0.023.
With NKAP (UniProt Q8N5F7) the log2 fold change was inactive: 0.093.
NEO1 (UniProt Q92859) was tested, and the log2 fold change was inactive: 0.17.
In the case of NR3C1 isoform 3 (UniProt P04150), the log2 fold change is reported as inactive: -0.071.
In the case of NRSN2 (UniProt Q9GZP1), the log2 fold change is reported as inactive: -0.063.
With NIPBL (UniProt Q6KC79) the log2 fold change was inactive: 0.022.
In the case of NPC1L1 (UniProt Q9UHC9), the log2 fold change is reported as inactive: 0.005.
With NME2P1 (UniProt O60361) the log2 fold change was inactive: 0.059.
NLRX1 (UniProt Q86UT6) was tested, and the log2 fold change was inactive: 0.076.
With NOS1AP (UniProt O75052) the log2 fold change was inactive: -0.112.
In the case of NOTCH2 (UniProt Q04721), the log2 fold change is reported as inactive: -0.02.
NFE2L1 (UniProt Q14494) was tested, and the log2 fold change was inactive: 0.393.
For NRM (UniProt Q8IXM6), the log2 fold change was inactive: -0.015.

Each target was assayed with CNC(=O)C1=CC=CC=C1NC2=NC(=NC=C2Cl)NC3=C(C=C(C=C3)N4CCOCC4)OC in the same assay as above.
Outline: as §1
For NRBP2 (UniProt Q9NSY0), the log2 fold change was inactive: -0.012.
With NMRK1 (UniProt Q9NWW6) the log2 fold change was inactive: -0.164.
In the case of NMU (UniProt P48645), the log2 fold change is reported as inactive: -0.055.
In the case of NKIRAS2 (UniProt Q9NYR9), the log2 fold change is reported as inactive: 0.
In the case of NMNAT3 (UniProt Q96T66), the log2 fold change is reported as inactive: -0.077.
NKAP (UniProt Q8N5F7) was tested, and the log2 fold change was inactive: -0.296.
NOP10 (UniProt Q9NPE3) was tested, and the log2 fold change was inactive: -0.103.
In the case of NME4 (UniProt O00746), the log2 fold change is reported as inactive: -0.004.
In the case of NR3C1 isoform 3 (UniProt P04150), the log2 fold change is reported as inactive: -0.065.
NRSN2 (UniProt Q9GZP1) was tested, and the log2 fold change was inactive: 0.097.
NSD1 (UniProt Q96L73) was tested, and the log2 fold change was inactive: 0.008.
NPRL3 (UniProt Q12980) was tested, and the log2 fold change was inactive: 0.094.
NIPBL (UniProt Q6KC79) was tested, and the log2 fold change was inactive: -0.015.
NRGN (UniProt Q92686) was tested, and the log2 fold change was inactive: 0.01.
NOMO3 (UniProt P69849) was tested, and the log2 fold change was inactive: 0.062.
For NME2P1 (UniProt O60361), the log2 fold change was inactive: -0.145.
NFKBIA (UniProt P25963) was tested, and the log2 fold change was inactive: -0.082.
With NOLC1 isoform 3 (UniProt Q14978) the log2 fold change was inactive: 0.018.
With NLRX1 (UniProt Q86UT6) the log2 fold change was inactive: 0.16.
In the case of NELFCD (UniProt Q8IXH7), the log2 fold change is reported as inactive: 0.024.
For NOL9 (UniProt Q5SY16), the log2 fold change was inactive: 0.067.
NOS1AP (UniProt O75052) was tested, and the log2 fold change was inactive: -0.089.
For NOTCH2 (UniProt Q04721), the log2 fold change was inactive: 0.136.
In the case of NKTR (UniProt P30414), the log2 fold change is reported as active: 0.939.
For NOSTRIN isoform 4 (UniProt Q8IVI9), the log2 fold change was inactive: 0.114.
With NFE2L1 (UniProt Q14494) the log2 fold change was inactive: -0.154.
For NEU3 isoform 2 (UniProt Q9UQ49), the log2 fold change was inactive: 0.091.
For NRM (UniProt Q8IXM6), the log2 fold change was inactive: -0.031.

What follows are targets tested with CNC(=O)c1ccc(Nc2ncc(C(F)(F)F)c(NCc3nccnc3N(C)S(C)(=O)=O)n2)cc1 [defactinib] in the same assay as above.
Outline: as §1
NMU (UniProt P48645) was tested, and the log2 fold change was inactive: -0.08.
In the case of NKAP (UniProt Q8N5F7), the log2 fold change is reported as inactive: 0.092.
In the case of NEO1 (UniProt Q92859), the log2 fold change is reported as inactive: -0.071.
NFIC isoform 6 (UniProt P08651) was tested, and the log2 fold change was inactive: 0.162.
With NPC1L1 (UniProt Q9UHC9) the log2 fold change was inactive: -0.093.
With NETO2 (UniProt Q8NC67) the log2 fold change was inactive: -0.082.
With NME2P1 (UniProt O60361) the log2 fold change was inactive: 0.034.
In the case of NFKBIA (UniProt P25963), the log2 fold change is reported as inactive: -0.167.
For NELFCD (UniProt Q8IXH7), the log2 fold change was inactive: -0.228.
For NOS1AP (UniProt O75052), the log2 fold change was inactive: 0.193.
With NR2C1 (UniProt P13056) the log2 fold change was inactive: 0.01.
With NFATC1 (UniProt O95644) the log2 fold change was inactive: -0.05.
NFE2L1 (UniProt Q14494) was tested, and the log2 fold change was inactive: -0.088.
For NRM (UniProt Q8IXM6), the log2 fold change was inactive: 0.059.
